Measurements published in the supplement of paper PMC12067093, “Discovery and optimisation of a covalent ligand for TRIM25 and its application to targeted protein ubiquitination” (Chemical Science, 2025).
Some of the results follow.

Compound: Cc1cc(ccc1-c1ccccc1)C(=O)N1CCCN(CC1)C(=O)CCl [compound 10]
Assay: probe-labelled cysteine peptide fold change vs DMSO (competition) (log2 fold change); higher = less target engagement (more negative = stronger competition)
Conditions: THP-1, incubation time: 4 h
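Also: competitive profiling in live THP-1 cells: cysteine peptides tagged with an iodoacetamide desthiobiotin (IA-DTB) probe, intensity after compound treatment relative to DMSO-treated cells.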

Row | Target | probe-labelled cysteine peptide fold change (10 µM) | probe-labelled cysteine peptide fold change (50 µM)
1 | PXK_Q7Z7A4_112_GLQNYLNVITTNHILSNCELVK (UniProt Q7Z7A4) | 0.0598 | 0.218
2 | RABGAP1L_Q5R372_665_NNFEDLHCK (UniProt Q5R372) | 0.206 | 0.197
3 | RABGGTA_Q92696_457_DLTVLCHLEQLLLVTHLDLSHNR (UniProt Q92696) | 0.288 | 0.244
4 | RAB9A_P51151_142_QVSTEEAQAWCR (UniProt P51151) | -0.0691 | 0.14
5 | RAB35_Q15286_110+114_WLHEINQNCDDVCR (UniProt Q15286) | 0.186 | 0.054
6 | PYCARD_Q9ULZ3_173_LFSFTPAWNWTCK (UniProt Q9ULZ3) | -0.238 | -0.449
7 | RAD51B_O15315_185_ELTCDEVLQR (UniProt O15315) | 0.00647 | -0.0561
8 | RABEPK_Q7Z6M1_243_LNPTGAAPAGCAAHSAVAMGK (UniProt Q7Z6M1) | -0.00823 | -0.138
9 | QDPR_P09417_161_GAVHQLCQSLAGK (UniProt P09417) | 0.0328 | 0.165
10 | RAB3GAP1_Q15042_873_FVSCLLEQPEVLVTGAGR (UniProt Q15042) | -0.0929 | 0.347
11 | QPRT_Q15274_111_CSGIASAAAAAVEAAR (UniProt Q15274) | 0.0437 | 0.072
12 | RACK1_P63244_207_TNHIGHTGYLNTVTVSPDGSLCASGGKDGQAMLWDLNEGK (UniProt P63244) | -0.303 | -0.656
13 | QSOX1_O00391_393_KVNWIGCQGSEPHFR (UniProt O00391) | -0.035 | -0.0766
14 | RAB11FIP1_Q6WKZ4_1007_SSTLDIGALSLGLVVPCPER (UniProt Q6WKZ4) | -0.0834 | -0.1
15 | RACK1_P63244_168_FSPNSSNPIIVSCGWDK (UniProt P63244) | 0.00306 | 0.0164
16 | RAB3GAP2_Q9H2M9_395_HGESICLSPCNTLAAVTDDFGR (UniProt Q9H2M9) | -0.00633 | 0.0791
17 | RAB3D_O95716_137_CDLEDERVVPAEDGRR (UniProt O95716) | 0.0274 | 0.0257
18 | RAD9A_Q99638_129+141_THNLSFQDCESLQAVFDPASCPHMLR (UniProt Q99638) | -0.413 | -0.127
19 | RAB21_Q9UL25_126+128_MLGNEICLCIVGNK (UniProt Q9UL25) | -0.445 | -0.353
20 | RAI14_Q9P0K7_101_NSHHECIR (UniProt Q9P0K7) | 0.203 | -0.145
21 | RAD9A_Q99638_3_CLVTGGNVK (UniProt Q99638) | 0.0786 | -0.0956

Row | Target | probe-labelled cysteine peptide fold change (10 µM) | probe-labelled cysteine peptide fold change (50 µM)
22 | RACK1_P63244_240+249_HLYTLDGGDIINALCFSPNRYWLCAATGPSIK (UniProt P63244) | -0.0719 | -0.365
23 | RAD50_Q92878_633_LFDVCGSQDFESDLDRLK (UniProt Q92878) | 0.217 | 0.0288
24 | QSOX2_Q6ZRP7_539_LQWPTPDLCPACHEEIK (UniProt Q6ZRP7) | 0.01 | -0.0211
25 | RACGAP1_Q9H0H5_327_VVSHPECR (UniProt Q9H0H5) | 0.0118 | -0.0695
26 | RAB14_P61106_40_FMADCPHTIGVEFGTR (UniProt P61106) | 0.0726 | -0.0566
27 | RAB3GAP2_Q9H2M9_792+793_DILDKPQSICCLHTMLSLLSK (UniProt Q9H2M9) | -0.317 | -0.413
28 | PWP1_Q13610_154_DTEQYEREDFLIKPSDNLIVCGR (UniProt Q13610) | 0.0705 | -0.671
29 | QKI_Q96PU8_119_QLEAETGCK (UniProt Q96PU8) | 0.162 | 0.159
30 | RAB11FIP1_Q6WKZ4_1028_LVLGEGLCDFR (UniProt Q6WKZ4) | -0.643 | -0.406
31 | UniProt Q8N1Y9_Q8N1Y9_79_GCLPGK | -0.245 | -0.0312
32 | RABEP1_Q15276_263_ELHEVCHLLEQER (UniProt Q15276) | 0.00619 | 0.0126
33 | RAB3GAP1_Q15042_510+511_CCLLHQK (UniProt Q15042) | -0.058 | -0.671
34 | PUS7_Q96PZ0_443_CVEGQLLR (UniProt Q96PZ0) | -0.0651 | -0.12
35 | RABGEF1_Q9UJ41_359_RDLSIEEQSECAQDFYHNVAER (UniProt Q9UJ41) | 0.126 | 0.791
36 | RAB3GAP2_Q9H2M9_896_QLEDCLILQTLLHSK (UniProt Q9H2M9) | 0.131 | -0.0661
37 | PYGB_P11216_496_WLLLCNPGLADTIVEK (UniProt P11216) | -0.0209 | 0.144
38 | RAB18_Q9NP72_110_LDNWLNELETYCTR (UniProt Q9NP72) | 0.0295 | 0.189
39 | RAD50_Q92878_325_KLVDCHR (UniProt Q92878) | 0.197 | 0.0158
40 | RAI14_Q9P0K7_168_DLDGNIPLLLAVQNGHSEICHFLLDHGADVNSR (UniProt Q9P0K7) | 0.337 | -0.107
41 | RAE1_P78406_217_CVAIFK (UniProt P78406) | 0.0398 | -0.0467
42 | PYCR3_Q53H96_235_SDVCTPGGTTIYGLHALEQGGLR (UniProt Q53H96) | -0.563 | -0.315

Row | Target | probe-labelled cysteine peptide fold change (10 µM) | probe-labelled cysteine peptide fold change (50 µM)
43 | RAB22A_Q9UL26_120_CDLIDVR (UniProt Q9UL26) | -0.0251 | 0.0894
44 | PYGB_P11216_326_TCFETFPDK (UniProt P11216) | -0.387 | -0.694
45 | RAB7B_Q96AH8_142_KVPQEVAQGWCR (UniProt Q96AH8) | 0.0385 | 0.284
46 | RAE1_P78406_106_VFTASCDK (UniProt P78406) | -0.028 | -0.273
47 | PUS7L_Q9H0K6_15_FSSLCFFNDHVGFHGTIK (UniProt Q9H0K6) | 0.109 | 0.05
48 | RACK1_P63244_153_YTVQDESHSEWVSCVR (UniProt P63244) | 0.234 | 0.176
49 | RAE1_P78406_93_AQQMHTGPVLDVCWSDDGSK (UniProt P78406) | -0.171 | -0.139
50 | RAB39A_Q14964_23_SCLLHR (UniProt Q14964) | 0.142 | 0.239
51 | PXK_Q7Z7A4_204_LLPSCLHPYIYR (UniProt Q7Z7A4) | -0.001 | 0.213
52 | RAD54L2_Q9Y4B4_1143_MAASGSQGPSCESTSNGR (UniProt Q9Y4B4) | -0.204 | -0.485
53 | RABGGTA_Q92696_371_STVLQSELESCK (UniProt Q92696) | 0.037 | 0.0651
54 | RAB18_Q9NP72_155_TCDGVQCAFEELVEK (UniProt Q9NP72) | -0.252 | -0.18
55 | RABGGTA_Q92696_132_ELELCAR (UniProt Q92696) | 0.0503 | 0.0777
56 | PWP2_Q15269_60_CVGLSPDGR (UniProt Q15269) | 0.0723 | -0.164
57 | RAB20_Q9NX57_179_MLDEQDVPAAEQMCFETSAK (UniProt Q9NX57) | -0.442 | -0.255
58 | PYGB_P11216_437_MSVIEEGDCK (UniProt P11216) | -0.0635 | -0.0351
59 | RAB3IL1_Q8TBN0_97_LKDEECER (UniProt Q8TBN0) | -0.068 | -0.539
60 | RAB14_P61106_26_SCLLHQFTEKK (UniProt P61106) | -0.207 | -0.895
61 | RABGGTA_Q92696_186_SCLLPQLHPQPDSGPQGR (UniProt Q92696) | 0.0591 | 0.036
62 | RAB44_Q7Z6P3_950_MDCEEER (UniProt Q7Z6P3) | 0.189 | 0.236
63 | RAB3GAP2_Q9H2M9_391+395_RHGESICLSPCNTLAAVTDDFGR (UniProt Q9H2M9) | -0.163 | -0.027

Row | Target | probe-labelled cysteine peptide fold change (10 µM) | probe-labelled cysteine peptide fold change (50 µM)
64 | RACGAP1_Q9H0H5_93_QRAEADCEK (UniProt Q9H0H5) | 0.258 | 0.278
65 | RAC1_P63000_105_HHCPNTPIILVGTK (UniProt P63000) | 0.0268 | -0.0534
66 | PYCR1_P32322_120_CMTNTPVVVR (UniProt P32322) | 0.0918 | -0.0741
67 | RAB36_O95755_247_DLLSGAACEQAEADAVHLAR (UniProt O95755) | -0.0899 | -0.308
68 | RAB33A_Q14088_135_MWIQECNGHAVPPLVPK (UniProt Q14088) | 0.0206 | 0.0086
69 | RAD50_Q92878_990_VIAQLSECEK (UniProt Q92878) | 0.043 | 0.0176
70 | R3HDM4_Q96D70_29_LLPLPSCLPALASSQVK (UniProt Q96D70) | -0.0312 | -0.0832
71 | RAB3GAP1_Q15042_181_MYVGECQGPGVR (UniProt Q15042) | 0.0634 | 0.19
72 | RABIF_P47224_97_FLVCADCEIGPIGWHCLDDK (UniProt P47224) | 0.11 | 0.0401
73 | QSER1_Q2KHR3_1709_KNEDLGQEEIVQLCMK (UniProt Q2KHR3) | 0.0157 | 0.0248
74 | RAB3GAP2_Q9H2M9_395_RHGESICLSPCNTLAAVTDDFGR (UniProt Q9H2M9) | 0.195 | 0.126
75 | RABL3_Q5HYI8_27_SSLVHLLCQNQVLGNPSWTVGCSVDVR (UniProt Q5HYI8) | 0.146 | -0.025
76 | RAD50_Q92878_157_AVLNNVIFCHQEDSNWPLSEGK (UniProt Q92878) | 0.145 | 0.125
77 | RAB11FIP1_Q6WKZ4_711_NTSSLELEESLPEQPETGRQEEELPRFPCK (UniProt Q6WKZ4) | -0.0697 | -0.758
78 | RACGAP1_Q9H0H5_419_VDDIHAICSLLK (UniProt Q9H0H5) | 0.00786 | 0.00467
79 | QRSL1_Q9H0R6_203_NPAAHCGLVGFKPSYGLVSR (UniProt Q9H0R6) | 0.0538 | -0.0148
80 | PYCR3_Q53H96_49_NLCHFQALGCR (UniProt Q53H96) | -0.0647 | -0.12
81 | R3HCC1_Q9Y3T6_94_VPSSDGLSGPCR (UniProt Q9Y3T6+R3HCC1) | 0.108 | -0.0791
82 | RAD21_O60216_392_CLTPLVPEDLRK (UniProt O60216) | 0.0787 | 0.103
83 | PYGB_P11216_808_NIACSGK (UniProt P11216) | -0.00679 | 0.0547
84 | QPRT_Q15274_96_GPAHCLLLGER (UniProt Q15274) | 0.0694 | 0.0165

Full records, quoted from the list. Values in the order: probe-labelled cysteine peptide fold change (10 µM) | probe-labelled cysteine peptide fold change (50 µM)
QSER1_Q2KHR3_1709_KNEDLGQEEIVQLCMK (UniProt Q2KHR3) as listed: 0.0157 | 0.0248
RAB33A_Q14088_135_MWIQECNGHAVPPLVPK (UniProt Q14088) as listed: 0.0206 | 0.0086
PYCR3_Q53H96_49_NLCHFQALGCR (UniProt Q53H96) as listed: -0.0647 | -0.12
RAB3GAP2_Q9H2M9_395_RHGESICLSPCNTLAAVTDDFGR (UniProt Q9H2M9) as listed: 0.195 | 0.126
